Experimental data reported in PMC10380083 (International Journal of Molecular Sciences, 2023).

How the values were obtained:
[1] = general procedure: Fmoc solid-phase peptide synthesis; 2-chlorotrityl chloride resin (2-CTC), capacity 1.0-1.5 mmol/g; HBTU, HOBt, DIPEA
[2] = general procedure: Fmoc solid-phase peptide synthesis; 2-CTC resin; HBTU, HOBt, DIPEA; conditions: whole synthesis
[3] = conjugation step, HPLC-MS (Shimadzu Prominence LC-20, LCMS-2020, Phenomenex Luna C18)
[4] = late stage modification step, HPLC-MS (Shimadzu Prominence LC-20, LCMS-2020, Phenomenex Luna C18)

(3S,7S,25S,28S,31S)-31-(4-aminobutyl)-25-benzyl-12-(4-bromobenzyl)-36-(4-(4-(((S)-1-(((S)-1-((4-((5S,8S,11S,12R)-11-((S)-sec-butyl)-12-(2-((S)-2-((1R,2R)-3-(((1S,2R)-1-hydroxy-1-phenylpropan-2-yl)amino)-1-methoxy-2-methyl-3-oxopropyl)pyrrolidin-1-yl)-2-oxoethyl)-5,8-diisopropyl-4,10-dimethyl-3,6,9-trioxo-2,13-dioxa-4,7,10-triazatetradecyl)phenyl)amino)-1-oxo-5-ureidopentan-2-yl)amino)-3-methyl-1-oxobutan-2-yl)amino)-4-oxobutyl)-1H-1,2,3-triazol-1-yl)-28-(4-hydroxybenzyl)-5,13,20,23,26,29,32-heptaoxo-4,6,12,19,24,27,30,33-octaazahexatriacontane-1,3,7-tricarboxylic acid
conjugation yield ([1]; conjugation step): 41%
final LC-MS purity [1, 3]: 99.9%

(3S,7S,25S,28S,31S)-31-(4-aminobutyl)-25-benzyl-36-(4-(4-(((S)-1-(((S)-1-((4-((5S,8S,11S,12R)-11-((S)-sec-butyl)-12-(2-((S)-2-((1R,2R)-3-(((1S,2R)-1-hydroxy-1-phenylpropan-2-yl)amino)-1-methoxy-2-methyl-3-oxopropyl)pyrrolidin-1-yl)-2-oxoethyl)-5,8-diisopropyl-4,10-dimethyl-3,6,9-trioxo-2,13-dioxa-4,7,10-triazatetradecyl)phenyl)amino)-1-oxo-5-ureidopentan-2-yl)amino)-3-methyl-1-oxobutan-2-yl)amino)-4-oxobutyl)-1H-1,2,3-triazol-1-yl)-12-(4-carboxybenzyl)-28-(4-hydroxybenzyl)-5,13,20,23,26,29,32-heptaoxo-4,6,12,19,24,27,30,33-octaazahexatriacontane-1,3,7-tricarboxylic acid
conjugation yield ([1]; conjugation step): 55%
final LC-MS purity [1, 3]: 99.9%

(3S,7S,25S,28S,31S)-31-(4-aminobutyl)-36-azido-25,28-dibenzyl-12-(4-carboxybenzyl)-5,13,20,23,26,29,32-heptaoxo-4,6,12,19,24,27,30,33-octaazahexatriacontane-1,3,7-tricarboxylic acid
final LC-MS purity [1, 4]: 99.9%
step yield ([1]; late stage modification step, on 5d): 76%

(3S,7S,25S,28S,31S)-31-(4-aminobutyl)-36-azido-25-benzyl-12-(3-chlorobenzyl)-28-(4-hydroxybenzyl)-5,13,20,23,26,29,32-heptaoxo-4,6,12,19,24,27,30,33-octaazahexatriacontane-1,3,7-tricarboxylic acid
final LC-MS purity [1, 4]: 99.9%
step yield ([1]; late stage modification step, on 5a): 76%

(3S,7S,25S,28S,31S)-31-(4-aminobutyl)-36-azido-25-benzyl-12-(4-bromobenzyl)-28-(4-hydroxybenzyl)-5,13,20,23,26,29,32-heptaoxo-4,6,12,19,24,27,30,33-octaazahexatriacontane-1,3,7-tricarboxylic acid
final LC-MS purity [1, 4]: 99.9%
step yield ([1]; late stage modification step, on 5b): 80%

(3S,7S,25S,28S,31S)-31-(4-aminobutyl)-36-azido-25-benzyl-12-(4-carboxybenzyl)-28-(4-hydroxybenzyl)-5,13,20,23,26,29,32-heptaoxo-4,6,12,19,24,27,30,33-octaazahexatriacontane-1,3,7-tricarboxylic acid
final LC-MS purity [1, 4]: 99.0%
step yield ([1]; late stage modification step, on 5c): 80%

(3S,7S,25S,28S,31S)-31-((3-azidopropyl)carbamoyl)-25-benzyl-12-(3-chlorobenzyl)-40-(((3S,8R,9S,10R,13S,14S)-10,13-dimethyl-17-(pyridin-3-yl)-2,3,4,7,8,9,10,11,12,13,14,15-dodecahydro-1H-cyclopenta[a]phenanthren-3-yl)oxy)-28-(4-hydroxybenzyl)-5,13,20,23,26,29,37,40-octaoxo-4,6,12,19,24,27,30,36-octaazatetracontane-1,3,7-tricarboxylic acid
conjugation yield ([1]; conjugation step): 85%
final LC-MS purity [1, 3]: 97%
purity (crude or final not stated) [1, 3]: 97%

N2-((7S,11S)-7,11-bis(tert-butoxycarbonyl)-16-(4-(tert-butoxycarbonyl)benzyl)-2,2-dimethyl-4,9,17,24-tetraoxo-3-oxa-8,10,16,23-tetraazaheptacosan-27-oyl)-L-phenylalanyl-L-phenylalanyl-N6-(tert-butoxycarbonyl)-L-lysine
isolated yield [2]: 95%

N2-((S)-2-((S)-2-((7S,11S)-7,11-bis(tert-butoxycarbonyl)-16-(4-(tert-butoxycarbonyl)benzyl)-2,2-dimethyl-4,9,17,24-tetraoxo-3-oxa-8,10,16,23-tetraazaheptacosan-27-amido)-3-phenylpropanamido)-3-(4-(tert-butoxy)phenyl)propanoyl)-N6-(tert-butoxycarbonyl)-L-lysine
isolated yield [2]: 76%

N2-((S)-2-((S)-2-((7S,11S)-16-(4-bromobenzyl)-7,11-bis(tert-butoxycarbonyl)-2,2-dimethyl-4,9,17,24-tetraoxo-3-oxa-8,10,16,23-tetraazaheptacosan-27-amido)-3-phenylpropanamido)-3-(4-(tert-butoxy)phenyl)propanoyl)-N6-(tert-butoxycarbonyl)-L-lysine
isolated yield [2]: 40%

tri-tert-butyl (10S,13S,16S,34S,38S)-10-((3-azidopropyl)carbamoyl)-13,16-dibenzyl-29-(4-(tert-butoxycarbonyl)benzyl)-2,2-dimethyl-4,12,15,18,21,28,36-heptaoxo-3-oxa-5,11,14,17,22,29,35,37-octaazatetracontane-34,38,40-tricarboxylate
step yield ([1]; late stage modification step): 47% yield

tri-tert-butyl (10S,13S,16S,34S,38S)-10-((3-azidopropyl)carbamoyl)-16-benzyl-13-(4-(tert-butoxy)benzyl)-29-(3-chlorobenzyl)-2,2-dimethyl-4,12,15,18,21,28,36-heptaoxo-3-oxa-5,11,14,17,22,29,35,37-octaazatetracontane-34,38,40-tricarboxylate
step yield ([1]; late stage modification step): 81%

tri-tert-butyl (10S,13S,16S,34S,38S)-10-((3-azidopropyl)carbamoyl)-16-benzyl-29-(4-bromobenzyl)-13-(4-(tert-butoxy)benzyl)-2,2-dimethyl-4,12,15,18,21,28,36-heptaoxo-3-oxa-5,11,14,17,22,29,35,37-octaazatetracontane-34,38,40-tricarboxylate
step yield ([1]; late stage modification step): 76%
